Experimental data published in PubChem BioAssay AID2551 (National Center for Advancing Translational Sciences (NCATS), 2010).
The whole screen tested about 310,000 compounds, of which about 17,000 (5.5%) were called active. Inconclusive results, whose numbers are uncertain, are shown with a selection of clear calls. Calls come from the whole dose curve; as a rule, active = well fitted inhibition curve with a large enough effect; inconclusive = small, poorly fitted or top-dose-only effect, or effect the other way; inactive = no such curve, though single readings can be large or run the other way. Where the call is inconclusive, the potency comes from a doubtful curve fit.

By UniProt entry, the sequences of proteins in these tests, tags left out. Where a name states a change or a piece, a line headed by the entry shows the natural chain unless it says otherwise.
UniProt P51450: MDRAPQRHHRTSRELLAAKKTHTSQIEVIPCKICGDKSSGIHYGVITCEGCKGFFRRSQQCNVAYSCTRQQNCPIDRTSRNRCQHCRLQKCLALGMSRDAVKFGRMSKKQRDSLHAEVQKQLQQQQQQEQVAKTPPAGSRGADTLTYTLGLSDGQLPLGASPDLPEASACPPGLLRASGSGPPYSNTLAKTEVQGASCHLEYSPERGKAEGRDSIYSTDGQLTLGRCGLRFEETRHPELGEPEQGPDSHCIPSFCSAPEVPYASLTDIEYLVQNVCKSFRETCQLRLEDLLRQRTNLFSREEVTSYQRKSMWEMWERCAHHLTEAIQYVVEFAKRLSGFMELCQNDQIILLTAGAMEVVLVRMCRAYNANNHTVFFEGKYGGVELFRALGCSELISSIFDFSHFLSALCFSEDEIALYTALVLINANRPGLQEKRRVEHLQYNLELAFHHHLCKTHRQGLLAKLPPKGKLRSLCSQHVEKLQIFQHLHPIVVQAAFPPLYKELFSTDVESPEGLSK

These compounds were tested against Nuclear receptor ROR-gamma (Mus musculus) (UniProt P51450) (assay: qHTS for inhibitors of ROR gamma transcriptional activity). Settings: Drosophila S2 Gal4-RORgamma UAS-luciferase reporter, 20 h; activity change, negative = inhibition: at 53.6 µM (top of the series).
Summary of the method: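 Compounds are pin-transferred onto Drosophila Schneider cells expressing a copper-inducible Gal4–ROR gamma transactivation domain fusion. After 1 hr, copper sulfate is added to 700 uM final; luciferase is read 20 hr later.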
% is set by controls: 0 for no effect and ±100 for the full control effect; potency is the fitted concentration of half-maximal effect.
Note: nearly all actives have a fitted effect of over 60% in size.

Potency, inactive:
C=CCOc1ccc2c(CC)cc(=O)oc2c1C, O=C(NC12CC3CC(CC(C3)C1)C2)c1cc2nc(-c3ccco3)cc(C(F)(F)F)n2n1, O=C(NC1CCCN(Cc2ccc(Cl)cc2)C1)c1ccoc1 (stereo not drawn), CCOC(=O)c1c(C=O)c(C)n(Cc2ccc(C)cc2)c1C, O=C(c1cc(-c2ccc(O)cc2)on1)N1CCCCCC1, O=C(O)C1CCCCC1C(=O)Nc1ccc(Cl)cc1Cl (stereo not drawn), CCSc1cc(C)nc2ncnn12, N/C(=N\OC(=O)CC1CCCCC1)c1ccccn1, CC1Sc2ccc(S(=O)(=O)CCC(=O)NCc3ccc(Cl)cc3)cc2NC1=O (stereo not drawn), COCc1c(C(=O)N/N=C(/C)c2cccs2)nnn1-c1nonc1N, CC(C)CCOP(=O)(c1ccccc1)c1ccccc1, CCOC(=O)c1ccc(NC(=S)N(Cc2cccnc2)Cc2ccco2)cc1, CCc1ccc(C(=O)NNC(=O)OC)cc1, COc1cc2c(cc1OC)C(C)N(C(=O)/C=C/c1cc(OC)c(OC)c(OC)c1)CC2 (stereo not drawn), NC(Cn1ccc(=O)c(O)c1)C(=O)O (stereo not drawn), CCC(=O)c1c[nH]c(C(=O)N2CCOCC2)c1, CC(C)n1cc(CN2CCN(C)C(CCO)C2)c2ccccc21 (stereo not drawn), O=C1CCC(C(=O)N(Cc2ccco2)C2(C(=O)NC3CCCC3)CCCCC2)N1 (stereo not drawn), CCOCCOC(=O)c1[nH]c2c(c1C)C(=O)CC(c1ccc(OC)c(OC)c1)C2 (stereo not drawn), O=[N+]([O-])c1ncccc1OCc1ccc(Br)cc1F, Cc1nccn1CC(=O)N/N=C/c1c[nH]c2ccccc12, O=S(=O)(NCc1ccncc1)c1ccc(S(=O)(=O)NCC2CCCO2)cc1 (stereo not drawn), COC(=O)C1=C(C)Nc2sc(C(N)=O)c(N)c2C1c1ccncc1 (stereo not drawn), CC1=C(C(=O)Nc2ccccn2)C(c2ccc(Cl)cc2Cl)NC(=S)N1 (stereo not drawn), COc1ccc2cc(CN(CCc3ccccc3)Cc3nnnn3CC3CCCO3)c(=O)[nH]c2c1 (stereo not drawn), O=C1CCCN=C(Nc2ccc(F)c(Cl)c2)S1, COc1cc(/C=C/C(=O)O)cc(S(=O)(=O)N2CCc3ccccc3C2)c1OC, CCn1ncc(NC(=O)Nc2cccc(C(F)(F)F)c2)c1C(N)=O

Potency, inconclusive:
CCCCC(NC(=O)Cc1c(C)c2cc3c4c(oc3cc2oc1=O)CCCC4)C(=O)O (stereo not drawn) 12.6 µM [activator, single point], Cc1ccccc1Cn1c(=O)n(CC2CCC(C(=O)NCCc3ccccc3)CC2)c(=O)c2ccccc21 (stereo not drawn) 0.447 µM [activator, single point], Cc1cccc(OCc2nnc(SCC(=O)Nc3nccs3)o2)c1 10 µM [inhibitor, partial curve], Cc1cnc(C(=O)NCc2ccc(F)cc2)cn1 11.2 µM [inhibitor, partial curve], O=C(Nc1cccc(Cl)c1)Nc1sccc1-c1nc2ccccc2s1 7.08 µM [inhibitor, full curve], CCc1ccc(-c2csc(NC(=O)C3CC(=O)N(c4ccc5c(c4)OCCO5)C3)n2)cc1 (stereo not drawn) 11.2 µM [activator, partial curve], COC(=O)CCN(C(=O)c1cc([N+](=O)[O-])cc([N+](=O)[O-])c1)c1ccccn1 11.2 µM [inhibitor, partial curve], C=CCN1c2ccccc2[C@]23C[C@@H](C(=O)OC)N(C(=O)c4ccco4)C2=NC(C(=O)OC)=C(C(=O)OC)[C@H]13 35.5 µM [activator, single point], Cn1cc[nH]c1=S 11.2 µM [inhibitor, single point], c1ccc(-c2nc(NC3CCCC3)c3ccccc3n2)cc1 31.6 µM [activator, single point], N#Cc1ccc(S(=O)(=O)N2CCCN(c3ccc(C(F)(F)F)cn3)CC2)cc1 14.1 µM [activator, single point], CCOC(=O)C1(Cc2cccc(Cl)c2)CCCN(C(=O)c2cc(C(C)C)nn2C)C1 (stereo not drawn) 22.4 µM [activator, single point], COC(=O)c1c(NC(NC(=O)C(C)C)C(Cl)(Cl)Cl)sc2c1CCC2 (stereo not drawn) 17.8 µM [activator, single point], C[C@H]1CC[C@H]2C(=O)N3[C@H](c4ccccc4Br)[C@@H](C)CC[C@H]3C(=O)N2[C@@H]1c1ccccc1Br 35.5 µM [activator, single point], O=C(NC(=S)Nc1ccc2c(c1)OCCO2)c1ccco1 14.1 µM [inhibitor, single point], CNC(=S)NCCc1cc2c(OC)ccc(OC)c2[nH]c1=O 20 µM [inhibitor, single point], COc1cc(/C=N/Nc2nncc3ccccc23)cc(OC)c1OC 10 µM [inhibitor, partial curve], COc1cccc2oc3cc(C#CC4(O)CCCCC4)ccc3c(=O)c12 12.6 µM [inhibitor, single point], COc1ccccc1NC(=O)C(=O)/C=C(\O)c1ccccc1 35.5 µM [inhibitor, single point], Cc1n[nH]c(C)c1S(=O)(=O)Nc1ccc2c(c1)OCCO2 12.6 µM [inhibitor, single point], Cc1nc(NC(=O)c2ccccc2)sc1C 14.1 µM [inhibitor, single point], Cc1cccc(C)c1NC(=O)Cn1c(CN2CCCCC2)nc2ccccc2c1=O 2.24 µM [activator, partial curve, poor fit], O=C(NCCSCc1ccco1)Nc1cc(Cl)cc(Cl)c1 17.8 µM [activator, single point], O=C(Nc1sc2c(c1C(=O)O)CCC2)c1cccc(Cl)c1 20 µM [activator, single point], Cc1cc(=O)[nH]c(NN=C(CC(C)C)CC(C)C)n1 35.5 µM [inhibitor, single point], COc1ccc(O)c(C(=O)CC(=O)c2ccc(F)cc2)c1 25.1 µM [inhibitor, single point], COc1cc(C)ccc1OCc1cc(C(=O)N(Cc2c(C)nn(C)c2C)C2CC2)no1 11.2 µM [activator, partial curve], COc1ccc(NC(=O)CC2C(=O)N(C)C(=S)N2Cc2cccs2)cc1 (stereo not drawn) 15.8 µM [activator, single point], O=S(=O)(c1cccc(F)c1)N1CCCN(c2ccc(C(F)(F)F)cn2)CC1 35.5 µM [activator, single point], Cc1cc(Cl)ccc1OCC(=O)N(Cc1cccs1)C1CCS(=O)(=O)C1 (stereo not drawn) 11.2 µM [activator, single point], Cc1ccc(-c2[nH]ncc2CNCCc2cnn(-c3ccccc3)c2)cc1C 20 µM [inhibitor, single point], O=C(Cn1nnc(-c2ccccc2)n1)N/N=C/c1cccc([N+](=O)[O-])c1 25.1 µM [activator, single point]

Potency, active:
CC1CCCCC1NC(=S)Nc1ccc(Cl)cc1Cl (stereo not drawn) 3.55 µM, CN1/C(=C\C=N\NC(=O)c2ccccc2Br)C(C)(C)c2ccccc21 0.794 µM, CC(=O)Oc1ccc(/C=C2/CCc3ccccc3C2=O)cc1 8.91 µM, NNC(=O)c1ccc(O)cc1O 1.26 µM, C/C(Cn1cnc([N+](=O)[O-])n1)=N\NC(=O)c1ccc(O)cc1O 0.199 µM, O=C(Nc1cccc(S(=O)(=O)N2CCCCC2)c1)c1ccc([N+](=O)[O-])o1 10 µM, Cc1ccccc1N1C(=O)CC(Sc2nnc(-c3ccccc3)o2)C1=O (stereo not drawn) 3.16 µM, C/C(=N/NC(=O)c1cc(C2CC2)[nH]n1)c1cccs1 11.2 µM, COc1ccc(OC)c(N=c2ssnc2Cl)c1 17.8 µM, CCCCN(C)S(=O)(=O)c1ccc(C(=O)Nc2nnc(CSC)o2)cc1 0.794 µM, S=C(Nc1ccc(Oc2ccccc2)cc1)NC1CCCCC1 2.24 µM, Cc1ccc(/C=c2/sc3nnc(-c4ccccc4Cl)n3c2=O)o1 4.47 µM, O=C(Nc1nc2c(s1)CCc1ccccc1-2)c1cccs1 10 µM, CN(C)c1ccc(C(=S)N2CCCCCC2)cc1 20 µM, Cc1nc(-c2ccccn2)nc(SCC(=O)c2ccccc2)c1Cl 3.98 µM, Cc1cccc(NC(=S)NC2CCCC2)c1C 7.08 µM, CCn1c2ccccc2c2cc(Nc3cc(C)nc4ncnn34)ccc21 20 µM, Cc1ccc(O)c(C(=O)CC(=O)c2cccc(F)c2)c1 7.94 µM, COc1ccc(-c2csc(NC(=S)NC(=O)c3ccco3)n2)cc1Br 7.94 µM, O=C(Nc1nc(-c2ccccn2)cs1)c1cccc(-n2cnnn2)c1 5.01 µM, CC(C)CC(NC(=O)c1ccc(Cl)cc1)C(=O)OCC(=O)c1ccc2c(c1)NC(=O)CO2 (stereo not drawn) 11.2 µM, COc1ccc(-n2c(=S)[nH]c3ccccc3c2=S)cc1 0.501 µM

Activity change, negative = inhibition, inactive:
COC(=O)C/C=C\[C@@H](C)[C@@H](/C=N\OC[C@@H](O)COCc1ccco1)NS(=O)(=O)c1ccc(C)cc1 -5.52% [at 10 µM]
